What all share (assay): pull-down; GFP-Trap pulldown from HeyA8 cells transfected with wild-type or PTAP-mutated SPHK1 plasmids; TSG101 detected by western blotting
(In western blotting, separated proteins are transferred to a membrane and probed.)

Amino acid sequences for entries named in this document (tags omitted). A change or cut given only in a name is not applied to a line headed by its entry.
UniProt Q9NYA1: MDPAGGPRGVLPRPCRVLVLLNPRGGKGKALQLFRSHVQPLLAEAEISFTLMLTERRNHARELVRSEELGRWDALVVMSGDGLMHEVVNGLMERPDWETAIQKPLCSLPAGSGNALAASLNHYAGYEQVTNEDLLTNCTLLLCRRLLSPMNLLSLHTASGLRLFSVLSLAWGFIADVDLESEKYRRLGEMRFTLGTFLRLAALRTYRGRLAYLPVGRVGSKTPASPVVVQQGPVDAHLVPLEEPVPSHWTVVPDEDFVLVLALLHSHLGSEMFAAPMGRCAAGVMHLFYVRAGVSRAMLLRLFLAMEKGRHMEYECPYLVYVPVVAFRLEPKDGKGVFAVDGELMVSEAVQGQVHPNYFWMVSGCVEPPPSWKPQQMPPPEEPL
UniProt Q99816: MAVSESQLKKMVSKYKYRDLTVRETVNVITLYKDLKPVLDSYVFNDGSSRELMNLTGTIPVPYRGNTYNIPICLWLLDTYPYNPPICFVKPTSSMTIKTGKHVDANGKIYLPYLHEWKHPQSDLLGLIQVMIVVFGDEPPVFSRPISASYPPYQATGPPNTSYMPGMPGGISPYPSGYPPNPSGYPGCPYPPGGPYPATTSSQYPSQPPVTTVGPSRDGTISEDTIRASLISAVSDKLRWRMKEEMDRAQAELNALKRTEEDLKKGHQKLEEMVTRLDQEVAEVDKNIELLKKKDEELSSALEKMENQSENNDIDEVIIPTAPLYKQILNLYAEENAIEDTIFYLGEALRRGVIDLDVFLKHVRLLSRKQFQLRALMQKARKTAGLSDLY

For assay [1], the target named is GFP-tagged SPHK1, PTAP motif mutated to ATAP (UniProt Q9NYA1).
Assay [2] addresses GFP-tagged SPHK1, PTAP motif mutated to PAAP (UniProt Q9NYA1).
The target of assay [3] is GFP-tagged SPHK1, PTAP motif mutated to PTAA (UniProt Q9NYA1).

These are yes or no findings as the source states them, for the method shown. Binding seen in cells or lysates may run through a third protein. For part of these data: Binding can be weak; no strength is given.

For “tumor susceptibility gene 101 protein (TSG101), endogenous in HeyA8 cells (from UniProt Q99816 1-390)”, the binding result is listed as “no binding” in assay [1], “binds” in assay [2] and “no binding” in assay [3].

The values above are taken from paper PMC9108620.
